2 substances from publication doi:10.1101/2025.02.06.636700 can be followed below.

Results are given in words; binding and its absence hold for the method and conditions named. Binding calls can cover weak binding; strength is not graded here. Tags and fused reporters may be left off the sequences shown.

The assay concerns the target T1, IAA11 (INDOLE-3-ACETIC ACID INDUCIBLE 11), yeast two-hybrid fusion (Arabidopsis thaliana) (UniProt Q38829).
T1 sequence: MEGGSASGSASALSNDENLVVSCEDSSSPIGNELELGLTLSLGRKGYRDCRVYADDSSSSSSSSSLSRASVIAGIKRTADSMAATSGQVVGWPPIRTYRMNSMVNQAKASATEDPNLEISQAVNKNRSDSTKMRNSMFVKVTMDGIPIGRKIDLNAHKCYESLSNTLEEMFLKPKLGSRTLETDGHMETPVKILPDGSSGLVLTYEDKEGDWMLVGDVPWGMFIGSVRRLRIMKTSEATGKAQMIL
The experiment in a line: two-hybrid.

On to “HaRxL106 full length (HaRxL106 FL), yeast two-hybrid fusion (Hyaloperonospora arabidopsidis)”, for which the binding result is “binds”.

Regarding “HaRxL106 carboxy-terminal domain (HaRxL106-c58), yeast two-hybrid fusion (Hyaloperonospora arabidopsidis) (domain or fragment)”, the binding result is listed as “binds”.
